Reference: PubChem BioAssay AID1259254 (NCATS, 2017)
The whole screen tested about 59,000 reagents; shown is a part drawn at random. Over the whole deposit, about 1,550 (2.6%) are marked active. 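G2 share is only a proxy for re-replication; each gene was hit by three separate siRNAs, and active genes were retested.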 A number with no mark means an inactive call. Reagents against one gene are numbered here. Further read-outs or replicates are left out here. No sequences are given here. Not stated in the record: the amount of reagent.

Assay: 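Gene knock-downs that lead to re-replication, shown by excess G2 DNA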 (primary screen)
Cell system: human HCT116 colorectal cancer cells
Knock-down reagent: single siRNA against human genes
Duration: 3 days
Detection: 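Imaged Hoechst DNA stain sorts each cell into a cycle phase by DNA amount; per plate, G2 fraction set to 0% for non-targeting and 100% for GMNN siRNA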
Scale: G2 robust z-score: higher = more G2 cells, more excess DNA replication
Hit rule: 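An siRNA counts as active if its G2 robust z-score lies at least 5 MADs above the screen median; here such calls match roughly 38% of GMNN control or more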

PRAMEF14 #1 — G2 robust z-score = -0.319
PRAMEF14 #2 — G2 robust z-score = 0.889
PRAMEF14 #3 — G2 robust z-score = -0.665
NEK6 #1 — G2 robust z-score = -0.947
NEK6 #2 — G2 robust z-score = -0.793
NEK6 #3 — G2 robust z-score = -0.558
OR2A7 #1 — G2 robust z-score = 1.72
OR2A7 #2 — G2 robust z-score = 0.885
OR2A7 #3 — G2 robust z-score = 0.862
IFNL1 #1 — G2 robust z-score = 1.28
IFNL1 #2 — G2 robust z-score = 2.21
IFNL1 #3 — G2 robust z-score = 1.45
TNKS2 #1 — G2 robust z-score = 0.968
TNKS2 #2 — G2 robust z-score = 0.00519
TNKS2 #3 — G2 robust z-score = -0.198
RIPPLY1 #1 — G2 robust z-score = 0.156
RIPPLY1 #2 — G2 robust z-score = -0.421
RIPPLY1 #3 — G2 robust z-score = -0.171
ELOA3P #1 — G2 robust z-score = -0.204
ELOA3P #2 — G2 robust z-score = 1.11
ELOA3P #3 — G2 robust z-score = 2.75
HEY2 #1 — G2 robust z-score = 2.13
HEY2 #2 — G2 robust z-score = -0.482
HEY2 #3 — G2 robust z-score = -0.675
